This assay deals with Endogenous pVHL (human (endogenous in MHCC-LM3)) (UniProt P40337). The experiment in a line: co-IP; endogenous proteins, MHCC-LM3 cells with NC or OTUD6B knockdown, treated with MG132 for 8 h, immunoprecipitation with control IgG or anti-pVHL antibodies.

Amino acid sequences for entries named in this document (tags omitted).
UniProt P40337: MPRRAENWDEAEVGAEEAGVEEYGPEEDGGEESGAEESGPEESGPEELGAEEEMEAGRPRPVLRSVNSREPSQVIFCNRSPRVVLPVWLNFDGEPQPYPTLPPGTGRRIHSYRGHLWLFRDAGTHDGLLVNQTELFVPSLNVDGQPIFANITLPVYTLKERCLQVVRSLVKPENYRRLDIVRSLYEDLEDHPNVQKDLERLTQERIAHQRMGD
UniProt Q16763: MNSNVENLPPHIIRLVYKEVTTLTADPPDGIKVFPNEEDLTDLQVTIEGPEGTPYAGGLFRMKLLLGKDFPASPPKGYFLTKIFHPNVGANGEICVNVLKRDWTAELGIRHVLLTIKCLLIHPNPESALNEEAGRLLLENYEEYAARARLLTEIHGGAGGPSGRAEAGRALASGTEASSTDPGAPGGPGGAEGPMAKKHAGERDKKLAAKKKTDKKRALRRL

Data on one substance can be found in paper PMC7175249.

These are yes or no findings as the source states them, for the method shown. Binding seen in cells or lysates may run through a third protein. Some results given as binding are weak or reduced against the parent protein; the word gives no strength.

Turning to “E2-EPF ubiquitin carrier protein (UCP) (from UniProt Q16763 1-222) (enzyme)”, the binding entry is reported as “binds”.
